# Values quoted from earlier work in patent US7183293B2, “Ether derivatives useful as inhibitors of PDE4 isozymes” (Pfizer Inc., priority 2001, dated 2007).
# At least one structure is not confirmed: it was looked up by name or label, or the drawing left a doubt.
# What was measured:
# [1] = system: epidermal basal cells; conditions: primary culture
# [2] = system: keratomed psoriatic epidermis; conditions: over controls
# [3] = system: psoriatic lesions; conditions: compared to vehicle
# [4] = system: endotoxin-induced acute renal failure
# [5] = system: bronchodilation; conditions: in vivo
smiles,measurement,setting,value
CCCCOc1cc(CC2CNC(=O)N2)ccc1OC (stereo not drawn) [Ro 20-1724],increase in cAMP concentrations,[1],three-fold increase
same,increase in cAMP concentration,[2],1395%
same,psoriatic lesions,[3],improve psoriatic lesions
CCCCOc1cc(CC2CNC(=O)N2)ccc1OC (stereo not drawn) [Ro-201724],endotoxin-induced increases in renal vascular resistance and decreases in renal blood flow and glomerular filtration rate,[4]; post-treatment at 10 μg/kg/min,markedly attenuates
same,survival rates for endotoxin-treated rats,"[4]; rat, in vivo",improve survival rates
COc1cc(-c2ccc(=O)[nH]n2)ccc1OC(F)F [zardaverine],bronchodilation,[5],only a modest and short-lived bronchodilation
